Measurements published in PubChem BioAssay AID588497 (NMMLSC, 2011).
Among all 360,000 compounds or so, about 780 (0.22%) were called active. This list was built around the results that the source calls inconclusive (neither active nor inactive); the mix of calls is not that of the screen. No stated cut-off is given here; in the data, active means inhibition above about 35% (passing the limit was not always enough); inconclusive means no clear call, values can overlap the other calls.

System: Botulinum neurotoxin type F light chain protease (Clostridium botulinum)
Experiment: BoNT/F light chain protease inhibitors, primary screen, biochemical, flow cytometry, MLPCN library (AID 588497); further: plate controls were buffer without enzyme for full effect and enzyme alone for no effect
Conditions: Multiplex microsphere protease cleavage assay, at 10 µM, hits give high values

| SMILES | inhibition |
| --- | --- |
| O=C(NNC(=S)NC(=O)c1ccco1)c1ccc(F)cc1 | inconclusive: -52.2% |
| CCCN(CCC)Cc1cc(=O)oc2cc(OC)ccc12 | inactive: -0.3% |
| O=C(NNC(=S)Nc1ccc(F)cc1)c1cccc([N+](=O)[O-])c1 | inconclusive: 0.4% |
| CC(C)(C)c1cc(C(=O)NNC(=O)Nc2cccc(Cl)c2)n(Cc2ccccc2)n1 | inconclusive: 58.4% |
| CS(=O)(=O)Oc1ccc2c(c1)O/C(=C\c1cccnc1)C2=O | inconclusive: -20% |
| CN(C)S(=O)(=O)c1cccc(NC(=O)CN2C(=O)NC3(CCc4ccccc4C3)C2=O)c1 (stereo unspecified) | inactive: 5.9% |
| Cc1ccc(C)c(NC(=O)CSc2n[nH]c(-c3ccncc3)n2)c1 | inconclusive: -5% |
| Brc1ccc2ncnc(NCc3cccnc3)c2c1 | inconclusive: -74.7% |
| Cc1ccc2cc(C#N)c(N3CCN(C(=O)c4cccs4)CC3)nc2c1 | active: 40% |
| CN(C)c1ccc(S(=O)(=O)N2CCCCC2)cc1NC(=O)CCNC(=O)c1ccccc1Cl | inactive: -2.1% |
| CC(C)(C)C(=O)Nc1ccc(S(=O)(=O)N2CCCC2)cc1 | inconclusive: -11.7% |
| COCCN(Cc1cn(C)nc1-c1ccc(Oc2ccccc2)cc1)C(C)C | inconclusive: -16.9% |
| O=C(CC(=O)c1ccccc1)Nc1ccccn1 | inconclusive: 1.5% |
| O=C1NCCCC1C(=O)N/N=C/c1ccc(Cl)cc1 (stereo unspecified) | inconclusive: -23.7% |
| COc1ccc(COC(=O)C2=C(C)NC(=O)NC2c2ccccc2F)cc1 (stereo unspecified) | inconclusive: -25.3% |
| Cc1cccc(Oc2nc(-c3ccncc3)nc3ccccc23)c1 | inconclusive: 120% |
| Cc1ccc(C(C)C)c(OCc2ccc(-c3nnco3)cc2)c1 | inconclusive: -11.6% |
| CCC(=O)N1N=C(c2cccs2)CC1c1ccc(OC)cc1 (stereo unspecified) | inconclusive: -21.6% |
| Cn1ncc(Br)c1C(=O)NC1CCCCCC1 | inactive: 2.5% |
| O=C(N/C(=C/c1ccc(F)cc1)C(=O)N1CCOCC1)c1ccccc1 | inconclusive: -233% |
| CC(C)N(CC#CCC1(O)c2ccccc2-c2ccccc21)C(C)C | active: 37.1% |
| CN(C)c1ccc(C(c2ccc(N(C)C)cc2)c2ccc([N+](=O)[O-])cc2)cc1 | inconclusive: -37.8% |
| O=C(Nc1ccc(N2CCCC2)cc1)c1cc2ccccc2o1 | inconclusive: -228% |

| SMILES | inhibition |
| --- | --- |
| O=C(O)CCC(=O)Nc1ccc(Oc2ncnc3cc(Cl)ccc23)nc1 | active: 40.2% |
| Cc1ccc(C(=O)NCCCN2CCOCC2)c(Cl)c1 | inconclusive: -30.1% |
| COc1cc(C2NC(=O)NC(C)=C2C(=O)OCC2CCCCC2)ccc1O (stereo unspecified) | inconclusive: 2.1% |
| O=C(O)c1ccc(N=C2NC(=O)C(CO)(CO)S2)cc1 | inconclusive: 51.2% |
| CCN(CC(=O)Nc1cc(S(=O)(=O)N2CCOCC2)ccc1C)Cc1ccccc1 | inconclusive: -12.3% |
| Cc1c(-c2ccccc2)cn2c1-c1ccc(C)n1CC2 | inconclusive: -61.8% |
| O=C(NN1C(=O)/C(=C/c2cccs2)SC1=S)c1ccccc1 | active: 40.7% |
| C=CCC(=O)NC1CCCc2c1cnn2-c1cc(F)cc(F)c1 (stereo unspecified) | inactive: 1.3% |
| O=C(CSC1CS(=O)(=O)c2cc([N+](=O)[O-])ccc21)NNC(=O)c1ccccc1 (stereo unspecified) | inconclusive: -7.7% |
| O=C1CC(C(=O)Nc2nccs2)C(c2ccccc2)O1 (stereo unspecified) | inactive: 2.5% |
| CCCc1ccc(OCC(O)CN2CCc3ccccc3C2)cc1 (stereo unspecified) | inconclusive: -5.7% |
| COC(=O)c1ccc(NC(=O)CSc2nnc(-c3ccccc3Br)n2-c2ccccc2)cc1 | inconclusive: 25.9% |
| COc1cc2ccccc2cc1C(=O)Nc1ccc(Br)cn1 | inconclusive: 8.2% |
| COC(=O)c1ccc(NC(=O)c2cccc(NC(=O)c3ccccc3)c2)cc1 | inconclusive: -5.1% |
| CCc1ccc(N(C(=O)CCC(=O)Nc2cc(C)on2)C(C(=O)NC(C)(C)C)c2ccc(OC)cc2)cc1 (stereo unspecified) | active: 35.3% |
| Cc1ccc(C(=O)OCC(=O)N2CCC(C)CC2)cc1S(=O)(=O)N1CCOCC1 | inactive: 0.5% |
| CN(c1cccc(NC(=O)c2ccc(CN3CCc4ccccc4C3)cc2)c1)S(C)(=O)=O | inconclusive: 41.3% |
| CCC(=O)N1CCc2cc(S(=O)(=O)NCCC(=O)N3CCc4ccccc4C3)ccc21 | inactive: 3.4% |
| COC(=O)c1nn(-c2ccc(F)cc2)ccc1=O | inconclusive: -14.4% |
| CCN(CC)CCN(Cc1cc2cc3c(cc2[nH]c1=O)OCCO3)C(=S)NCCCOC | inconclusive: 1.1% |
| Brc1ccc2cccnc2c1 | inconclusive: -0.6% |
| Cc1ccc(NC(=O)CC2SC3=NCCN3C2=O)cc1 (stereo unspecified) | inactive: -0.4% |
| Cc1ccc(-c2ccc(/C=N/n3cnnc3)o2)cc1 | inconclusive: -2.8% |

| SMILES | inhibition |
| --- | --- |
| CCc1cc(C(=O)NNC(=S)Nc2ccccc2C)cs1 | inactive: 8.3% |
| CC(Sc1nnc(C2CC2)n1C1CC1)C(=O)c1ccc(Br)cc1 (stereo unspecified) | inconclusive: 1.8% |
| Cc1ccc(-c2csc(NC(=O)c3ccc(Br)cc3)c2C(=O)O)cc1 | inconclusive: -20.4% |
| Cc1nc(N2CCN(Cc3ccc4c(c3)OCO4)CC2)nc2c1C(=O)CC(c1ccco1)C2 (stereo unspecified) | inconclusive: 10.6% |
| OCCN1CCOCCOc2ccccc2OCCOCC1 | inconclusive: -23.9% |
| O=C(Nc1ccccc1)N(Cc1ccc2c(c1)OCO2)Cc1nc2ccccc2c(=O)[nH]1 | inconclusive: -41.2% |
| COC(=O)c1cc(NC(=O)c2cc(-c3ccccc3Cl)oc2C(F)(F)F)ccc1N1CCOCC1 | inconclusive: 41.2% |
| Cc1nn(C(C)C(=O)N2CCCC2)c(=O)c2nn(-c3ccccc3)c(C)c12 (stereo unspecified) | inactive: -4.7% |
| COc1ccc(C(=O)NC(C)CCn2cccn2)cc1OC1CCN(C(C)C)CC1 (stereo unspecified) | inactive: -0.7% |
| CCCN(CC(=O)Nc1ccc(F)c(F)c1F)C(=O)CCc1nc2ccccc2c(=O)[nH]1 | inconclusive: -6.4% |
| CC1CN2c3ccc([N+](=O)[O-])cc3CC3(C(=O)N(C)C(=O)N(C)C3=O)C2C(C)O1 (stereo unspecified) | inconclusive: 30.6% |
| CCNC(=S)N/N=C/c1sc(N2CCCCC2)nc1-c1cccs1 | inconclusive: -4.2% |
| COc1ccccc1-c1nc(C#N)c(N2CCC(Cc3ccccc3)CC2)o1 | inactive: 6.3% |
| Brc1ccc(-c2nnc(-c3cccnc3)o2)cc1 | inconclusive: 2% |
| CCCCC(=O)N/N=C/c1c(O)n(CCCC)c(=S)[nH]c1=O | inconclusive: -14.3% |
| COC(=O)c1ccc(C(=O)OC)c(NC(=O)CN(C)Cc2ccccc2)c1 | inactive: -4.2% |
| COc1cc2oc3cc(C)oc(=O)c3c2cc1OC | inconclusive: -25.5% |
| COc1ccc(S(=O)(=O)NCC2CCCO2)cc1Cl (stereo unspecified) | active: 35.4% |
| O=C(c1ccc(CS(=O)c2ccccc2Cl)o1)N1CCN(C2CCCCC2)CC1 (stereo unspecified) | inactive: -1.7% |
| CC(=O)Nc1ccc(Nc2ncnc3c2cnn3-c2ccc(C)cc2C)cc1 | inconclusive: -0.2% |
| Cc1[nH]c2ccccc2c1/C=C/C(=O)c1ccncc1 | inconclusive: -5.5% |
| CCCCNC(=O)CNC(=S)N(CCCN1CCOCC1)Cc1cccs1 | inactive: 0.1% |
| CCC(=O)c1ccc2c(c1)OCCO2 | inconclusive: 0.1% |

| SMILES | inhibition |
| --- | --- |
| COc1ccc(OC)c(NC(=O)CSc2ccccc2)c1 | inconclusive: 24% |
| Nc1ccc(SCc2nc3cccc4c3n2CCC4)cc1 | inconclusive: -4.7% |
| COc1ccc(NC(=O)/C(=C/c2cccs2)NC(=O)c2ccco2)cc1 | inconclusive: 43.1% |
| CC(=O)N1CCN(c2ccc(NC(=O)c3ccc([N+](=O)[O-])cc3Cl)cc2)CC1 | inconclusive: -6.3% |
| CC(=O)Nc1ccc(OCCOc2ccc([N+](=O)[O-])cc2)cc1 | inconclusive: -5% |
| COc1ccc(S(=O)(=O)Nc2ccccc2C(=O)Nc2nc(-c3ccc(F)cc3)cs2)cc1OC | inactive: -0.9% |
| CN(c1ccccc1)S(=O)(=O)c1ccc2ccccc2c1 | inconclusive: 20.4% |
| CCOc1cccc(CN2CCCC(C(=O)c3cc(Cl)ccc3OC)C2)c1O (stereo unspecified) | inconclusive: -2.3% |
| COc1cccc(C(=O)Nc2cccc(NC(C)=O)c2)c1 | inactive: -3.8% |
| CCOC(=O)c1c(NC(=O)CN2C(=O)NC3(CCCCC3C)C2=O)sc(C)c1CC (stereo unspecified) | inconclusive: -6.2% |
| O=C1C2CCCCN2C(=O)N1CCCCN1CCN(c2cccc(Cl)c2)CC1 (stereo unspecified) | inconclusive: -13.4% |
| CCOc1cc(NS(=O)(=O)c2ccc(Cl)cc2)c(OCC)cc1NC(=O)CC(C)C | inactive: -19.3% |
| NS(=O)(=O)c1ccc(NC(=S)Nc2ccc(OCc3ccccc3)cc2)cc1 | inactive: -0.1% |
| COc1ccc(S(=O)(=O)Nc2ccc(Oc3ncccn3)c(Cl)c2)cc1 | inconclusive: -27.9% |
| Cn1c(=O)c(-c2ccccc2)nn2c3ccccc3nc12 | inactive: -4% |
| O=C(c1cccc(F)c1)N1CCCc2ccccc21 | inconclusive: 1.2% |
| O=c1cc(-c2ccccc2)nc2cc(-c3ccco3)[nH]n12 | inactive: 1.9% |
| CC1CC(C)CN(S(=O)(=O)c2ccc(Cl)cc2)C1 (stereo unspecified) | inconclusive: 6.9% |
| COc1cc(Br)c(C2CC(=O)Nc3cc(OC)c(OC)cc32)cc1OC (stereo unspecified) | inconclusive: 32.6% |
| COc1ccc(NC(=O)CN(c2ccc(OC)cc2)S(=O)(=O)c2ccc(OC)c(OC)c2)cc1 | inconclusive: 7% |
| CCN(C(=O)Cn1c(=O)oc2ccccc21)c1cccc(C)c1 | inactive: -5.1% |
| CCOc1ccc(C(=O)OCC(=O)Nc2ccc3c(c2)OCCO3)cc1OC | inconclusive: 7.2% |

Pulled by structure from above:

| SMILES | inhibition |
| --- | --- |
| Nc1ccc(SCc2nc3cccc4c3n2CCC4)cc1 | inconclusive: -4.7% |
| CC1CC(C)CN(S(=O)(=O)c2ccc(Cl)cc2)C1 (stereo unspecified) | inconclusive: 6.9% |
| COc1cccc(C(=O)Nc2cccc(NC(C)=O)c2)c1 | inactive: -3.8% |
| CC(=O)Nc1ccc(OCCOc2ccc([N+](=O)[O-])cc2)cc1 | inconclusive: -5% |

Quoted from the listing.
Value for CCOc1cc(NS(=O)(=O)c2ccc(Cl)cc2)c(OCC)cc1NC(=O)CC(C)C under inhibition: inactive: -19.3%
Value for NS(=O)(=O)c1ccc(NC(=S)Nc2ccc(OCc3ccccc3)cc2)cc1 under inhibition: inactive: -0.1%
